Values quoted from earlier work, collected in patent US10052333B2, “Methods and systems for the delivery of a therapeutic agent” (HANANJA EHF, priority 2007, dated 2018).

Settings: nasal gel, carbopol in PEG 400, rats; cited from earlier work

## COC(=O)C1=C(C)NC(C)=C(C(=O)OC)C1c1ccccc1[N+](=O)[O-] [nifedipine]
  Bioavailability, nasal versus peroral: higher bioavailability of nifedipine than after peroral administration
